Publication PMC10619491, “SET7/9-mediated methylation affects oncogenic functions of histone demethylase JMJD2A” (JCI Insight, 2023)
Positions count from the first letter of the chain named. Results are given in words; binding and its absence hold for the method and conditions named. In cells and extracts the contact can be indirect. Some binding calls cover weakened binding; strength is not graded here. Where a sequence is shown, tags or fusion partners need not be part of it.

The chains behind the UniProt entries cited, without tags or fusion partners.
UniProt P50549: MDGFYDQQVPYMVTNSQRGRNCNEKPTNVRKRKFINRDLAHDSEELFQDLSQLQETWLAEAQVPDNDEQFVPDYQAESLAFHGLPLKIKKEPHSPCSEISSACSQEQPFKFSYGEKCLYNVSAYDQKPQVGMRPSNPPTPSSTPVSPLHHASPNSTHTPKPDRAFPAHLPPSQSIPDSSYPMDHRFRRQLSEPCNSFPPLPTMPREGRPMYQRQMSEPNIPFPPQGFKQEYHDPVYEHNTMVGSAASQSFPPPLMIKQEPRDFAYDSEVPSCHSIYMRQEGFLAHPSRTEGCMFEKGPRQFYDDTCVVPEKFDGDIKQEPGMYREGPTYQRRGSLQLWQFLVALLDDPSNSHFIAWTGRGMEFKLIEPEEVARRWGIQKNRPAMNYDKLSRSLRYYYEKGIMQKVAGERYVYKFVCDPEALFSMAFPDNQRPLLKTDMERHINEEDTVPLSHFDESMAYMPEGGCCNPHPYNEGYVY
UniProt P10275: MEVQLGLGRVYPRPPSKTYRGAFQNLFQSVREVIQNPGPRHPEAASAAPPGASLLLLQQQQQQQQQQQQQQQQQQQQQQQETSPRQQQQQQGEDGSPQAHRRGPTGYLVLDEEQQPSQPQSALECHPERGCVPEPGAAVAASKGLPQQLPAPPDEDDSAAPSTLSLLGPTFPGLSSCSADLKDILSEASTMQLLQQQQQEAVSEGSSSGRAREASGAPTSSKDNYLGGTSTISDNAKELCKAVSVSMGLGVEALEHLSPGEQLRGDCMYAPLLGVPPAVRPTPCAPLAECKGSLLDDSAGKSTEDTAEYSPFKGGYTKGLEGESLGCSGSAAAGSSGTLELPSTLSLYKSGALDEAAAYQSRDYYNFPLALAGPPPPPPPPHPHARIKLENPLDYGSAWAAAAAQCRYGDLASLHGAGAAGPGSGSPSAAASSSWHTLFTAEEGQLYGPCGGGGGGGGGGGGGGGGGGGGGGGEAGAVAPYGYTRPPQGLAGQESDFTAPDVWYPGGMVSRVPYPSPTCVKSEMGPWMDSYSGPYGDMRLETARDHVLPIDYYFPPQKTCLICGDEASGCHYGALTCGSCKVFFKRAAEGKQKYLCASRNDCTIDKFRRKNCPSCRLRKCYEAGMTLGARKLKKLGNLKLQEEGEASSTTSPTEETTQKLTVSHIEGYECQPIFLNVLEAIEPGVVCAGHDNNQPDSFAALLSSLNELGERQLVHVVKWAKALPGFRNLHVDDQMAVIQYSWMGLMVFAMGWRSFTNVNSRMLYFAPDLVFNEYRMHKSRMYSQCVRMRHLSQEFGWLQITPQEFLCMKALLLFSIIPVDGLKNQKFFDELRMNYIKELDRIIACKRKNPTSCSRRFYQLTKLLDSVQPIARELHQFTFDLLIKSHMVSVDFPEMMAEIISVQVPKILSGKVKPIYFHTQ

Columns and labels:
[1] = target: T1, Flag-JMJD2A R505/506/507 triple mutant (human) (UniProt O75164); assay: co-IP; 293T cells co-transfected with Flag-JMJD2A (WT or K-to-R mutants) and 6Myc-ETV1; anti-Flag IP, anti-Myc Western blot; also with doxycycline (0.3 μg/mL) to overexpress SET7/9
T1 sequence: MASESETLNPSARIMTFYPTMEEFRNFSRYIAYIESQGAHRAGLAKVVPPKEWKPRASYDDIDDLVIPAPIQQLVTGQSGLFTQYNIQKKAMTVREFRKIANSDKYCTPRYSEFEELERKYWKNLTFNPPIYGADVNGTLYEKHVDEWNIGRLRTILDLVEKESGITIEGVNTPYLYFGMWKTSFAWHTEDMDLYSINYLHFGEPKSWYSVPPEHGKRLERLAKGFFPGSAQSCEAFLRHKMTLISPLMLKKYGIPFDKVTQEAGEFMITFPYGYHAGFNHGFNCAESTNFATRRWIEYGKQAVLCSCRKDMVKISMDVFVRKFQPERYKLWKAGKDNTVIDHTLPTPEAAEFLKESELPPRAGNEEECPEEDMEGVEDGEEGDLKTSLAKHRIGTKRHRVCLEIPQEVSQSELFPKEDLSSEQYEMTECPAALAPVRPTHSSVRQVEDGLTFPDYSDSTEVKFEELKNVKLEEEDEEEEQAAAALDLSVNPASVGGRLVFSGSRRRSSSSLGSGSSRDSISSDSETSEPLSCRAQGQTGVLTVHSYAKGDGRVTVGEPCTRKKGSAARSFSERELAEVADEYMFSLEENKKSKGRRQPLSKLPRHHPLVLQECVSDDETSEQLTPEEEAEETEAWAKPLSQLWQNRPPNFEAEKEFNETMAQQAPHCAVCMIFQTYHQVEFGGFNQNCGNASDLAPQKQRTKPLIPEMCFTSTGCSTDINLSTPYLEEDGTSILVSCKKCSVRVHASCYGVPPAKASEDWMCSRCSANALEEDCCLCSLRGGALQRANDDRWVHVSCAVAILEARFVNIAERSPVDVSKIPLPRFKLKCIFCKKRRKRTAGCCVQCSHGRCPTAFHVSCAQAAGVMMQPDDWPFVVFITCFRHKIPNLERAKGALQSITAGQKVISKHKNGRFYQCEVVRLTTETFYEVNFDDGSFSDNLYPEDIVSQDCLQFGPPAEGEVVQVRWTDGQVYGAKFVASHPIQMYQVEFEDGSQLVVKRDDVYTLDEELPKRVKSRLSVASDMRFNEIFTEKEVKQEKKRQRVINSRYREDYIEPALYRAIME

[2] = target: T2, Flag-JMJD2A R505/506/507/563/564/594 hexa-mutant (human) (UniProt O75164); assay: as above
T2 sequence: T1 sequence with K563R, K564R, K594R

[3] = target: T3, Flag-JMJD2A R563/564 mutant (human) (UniProt O75164); assay: as above
T3 sequence: T1 sequence with R505K, R506K, R507K, K563R, K564R

[4] = target: T4, Flag-JMJD2A R594 mutant (human) (UniProt O75164); assay: as above
T4 sequence: T1 sequence with R505K, R506K, R507K, K594R

[5] = target: T5, Flag-tagged JMJD2A (WT) (human) (UniProt O75164); assay: as above
T5 sequence: T1 sequence with R505K, R506K, R507K

[6] = target: T2, Flag-JMJD2A R505/506/507/563/564/594 hexa-mutant (human); assay: co-IP; Flag-JMJD2A (WT or 6xR) with ectopically expressed androgen receptor, in the presence of 50 nM dihydrotestosterone; anti-Flag IP
[7] = target: T5, Flag-tagged JMJD2A (WT) (human); assay: as above

Measured: binding

6Myc-tagged ETV1 (from UniProt P50549 1-477)
not listed: [6] | [7]
binds: all other assays above

androgen receptor (AR), ectopically expressed (from UniProt P10275 1-920)
binds: [6] | [7]
